Data: the supplement of paper PMC12067093, “Discovery and optimisation of a covalent ligand for TRIM25 and its application to targeted protein ubiquitination” (Chemical Science, 2025)
The list shows a part of the results.

Chains of the proteins cited; added tags and fusions are not shown. Lines headed by an entry give the natural chain unless they say otherwise; changes in a name come on top.
UniProt P09525: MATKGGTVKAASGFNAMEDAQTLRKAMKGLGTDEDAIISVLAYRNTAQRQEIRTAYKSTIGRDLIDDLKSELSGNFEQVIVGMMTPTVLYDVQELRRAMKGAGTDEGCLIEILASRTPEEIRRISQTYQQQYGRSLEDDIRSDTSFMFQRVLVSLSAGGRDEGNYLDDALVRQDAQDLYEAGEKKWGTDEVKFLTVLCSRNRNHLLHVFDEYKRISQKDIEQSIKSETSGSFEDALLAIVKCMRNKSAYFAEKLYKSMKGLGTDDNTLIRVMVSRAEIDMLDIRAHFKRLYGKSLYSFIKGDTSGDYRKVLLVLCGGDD
UniProt Q86XL3: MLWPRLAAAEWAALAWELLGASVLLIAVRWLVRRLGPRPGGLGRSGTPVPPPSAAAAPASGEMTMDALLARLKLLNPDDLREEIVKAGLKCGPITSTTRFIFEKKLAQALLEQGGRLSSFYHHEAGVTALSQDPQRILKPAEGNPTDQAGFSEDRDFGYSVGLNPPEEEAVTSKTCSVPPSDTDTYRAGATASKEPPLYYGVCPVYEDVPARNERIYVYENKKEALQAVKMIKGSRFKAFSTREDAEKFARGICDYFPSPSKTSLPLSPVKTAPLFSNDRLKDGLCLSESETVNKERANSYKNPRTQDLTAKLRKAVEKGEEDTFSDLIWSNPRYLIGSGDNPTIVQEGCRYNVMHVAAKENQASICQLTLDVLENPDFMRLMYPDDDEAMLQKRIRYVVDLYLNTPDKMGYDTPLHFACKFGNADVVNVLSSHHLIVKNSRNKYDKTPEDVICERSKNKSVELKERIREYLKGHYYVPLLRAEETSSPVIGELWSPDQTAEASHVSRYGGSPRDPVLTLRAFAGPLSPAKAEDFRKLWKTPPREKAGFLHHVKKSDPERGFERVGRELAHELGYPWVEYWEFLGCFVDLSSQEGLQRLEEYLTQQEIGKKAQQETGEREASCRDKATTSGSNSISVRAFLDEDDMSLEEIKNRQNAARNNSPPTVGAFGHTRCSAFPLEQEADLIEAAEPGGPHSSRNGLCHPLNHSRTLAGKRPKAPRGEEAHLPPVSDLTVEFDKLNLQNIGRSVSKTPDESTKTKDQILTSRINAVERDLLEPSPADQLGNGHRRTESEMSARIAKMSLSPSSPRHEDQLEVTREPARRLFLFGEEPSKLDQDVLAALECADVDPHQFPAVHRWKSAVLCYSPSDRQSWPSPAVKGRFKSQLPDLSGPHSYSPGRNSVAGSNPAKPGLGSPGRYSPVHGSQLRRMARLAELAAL
UniProt O15084: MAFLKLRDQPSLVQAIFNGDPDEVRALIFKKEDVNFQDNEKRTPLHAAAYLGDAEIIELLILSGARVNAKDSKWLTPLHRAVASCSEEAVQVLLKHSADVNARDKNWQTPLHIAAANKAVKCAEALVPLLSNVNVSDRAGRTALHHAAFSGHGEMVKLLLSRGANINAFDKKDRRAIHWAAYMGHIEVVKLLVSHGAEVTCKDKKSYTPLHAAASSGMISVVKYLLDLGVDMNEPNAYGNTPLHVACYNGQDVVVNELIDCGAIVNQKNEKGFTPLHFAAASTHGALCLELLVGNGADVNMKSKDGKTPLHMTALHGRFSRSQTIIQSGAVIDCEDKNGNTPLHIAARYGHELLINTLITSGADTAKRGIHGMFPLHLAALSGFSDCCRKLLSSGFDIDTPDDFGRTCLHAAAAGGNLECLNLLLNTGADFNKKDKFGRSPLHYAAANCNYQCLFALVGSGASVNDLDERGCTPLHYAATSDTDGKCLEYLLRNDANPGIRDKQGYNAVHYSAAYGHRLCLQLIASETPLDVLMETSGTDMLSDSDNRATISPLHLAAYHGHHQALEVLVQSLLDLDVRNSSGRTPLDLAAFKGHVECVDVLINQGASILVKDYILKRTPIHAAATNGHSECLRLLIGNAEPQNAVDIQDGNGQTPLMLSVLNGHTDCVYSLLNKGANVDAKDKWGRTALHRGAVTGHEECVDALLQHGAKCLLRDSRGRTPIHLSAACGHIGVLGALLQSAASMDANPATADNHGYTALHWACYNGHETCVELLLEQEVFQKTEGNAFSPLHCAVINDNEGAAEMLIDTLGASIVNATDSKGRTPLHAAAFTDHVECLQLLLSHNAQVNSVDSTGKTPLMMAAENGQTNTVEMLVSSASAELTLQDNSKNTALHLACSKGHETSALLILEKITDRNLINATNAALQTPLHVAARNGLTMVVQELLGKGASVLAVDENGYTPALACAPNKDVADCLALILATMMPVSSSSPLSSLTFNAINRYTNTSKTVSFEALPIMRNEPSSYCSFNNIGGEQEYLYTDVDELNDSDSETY
UniProt P39687: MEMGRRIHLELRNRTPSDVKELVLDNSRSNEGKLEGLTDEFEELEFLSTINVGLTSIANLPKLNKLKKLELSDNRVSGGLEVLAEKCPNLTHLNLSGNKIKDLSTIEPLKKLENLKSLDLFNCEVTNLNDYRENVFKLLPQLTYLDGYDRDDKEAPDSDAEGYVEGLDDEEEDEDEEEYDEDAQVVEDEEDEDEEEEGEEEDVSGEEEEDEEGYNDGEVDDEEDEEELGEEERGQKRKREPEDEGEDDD
UniProt Q96NW4, whole entry, looked up: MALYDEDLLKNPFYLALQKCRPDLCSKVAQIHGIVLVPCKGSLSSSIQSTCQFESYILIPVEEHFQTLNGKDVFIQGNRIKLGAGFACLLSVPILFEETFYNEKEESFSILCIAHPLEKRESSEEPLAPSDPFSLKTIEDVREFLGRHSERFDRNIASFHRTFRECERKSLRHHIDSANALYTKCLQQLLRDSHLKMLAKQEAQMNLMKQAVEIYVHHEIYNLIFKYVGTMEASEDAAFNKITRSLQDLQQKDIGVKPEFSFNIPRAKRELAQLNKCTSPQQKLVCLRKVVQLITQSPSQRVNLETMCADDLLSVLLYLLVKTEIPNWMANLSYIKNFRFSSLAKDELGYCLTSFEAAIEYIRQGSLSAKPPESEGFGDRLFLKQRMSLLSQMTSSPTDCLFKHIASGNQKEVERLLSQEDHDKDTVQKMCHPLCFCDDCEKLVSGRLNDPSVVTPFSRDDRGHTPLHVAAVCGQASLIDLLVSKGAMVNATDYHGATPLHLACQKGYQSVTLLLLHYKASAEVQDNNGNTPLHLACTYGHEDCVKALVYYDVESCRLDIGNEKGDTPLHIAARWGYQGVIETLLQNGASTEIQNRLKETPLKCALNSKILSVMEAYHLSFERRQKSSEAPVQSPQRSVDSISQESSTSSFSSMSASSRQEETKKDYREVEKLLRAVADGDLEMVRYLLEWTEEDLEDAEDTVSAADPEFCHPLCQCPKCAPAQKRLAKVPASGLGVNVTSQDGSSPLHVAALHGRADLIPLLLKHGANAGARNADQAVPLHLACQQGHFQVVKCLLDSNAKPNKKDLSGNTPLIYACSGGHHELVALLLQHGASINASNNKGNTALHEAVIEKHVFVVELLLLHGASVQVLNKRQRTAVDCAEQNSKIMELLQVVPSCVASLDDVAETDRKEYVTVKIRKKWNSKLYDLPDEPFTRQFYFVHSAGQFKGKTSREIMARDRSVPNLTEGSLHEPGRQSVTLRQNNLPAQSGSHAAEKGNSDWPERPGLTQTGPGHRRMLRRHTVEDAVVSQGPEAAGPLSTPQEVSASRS
UniProt Q9HDC9: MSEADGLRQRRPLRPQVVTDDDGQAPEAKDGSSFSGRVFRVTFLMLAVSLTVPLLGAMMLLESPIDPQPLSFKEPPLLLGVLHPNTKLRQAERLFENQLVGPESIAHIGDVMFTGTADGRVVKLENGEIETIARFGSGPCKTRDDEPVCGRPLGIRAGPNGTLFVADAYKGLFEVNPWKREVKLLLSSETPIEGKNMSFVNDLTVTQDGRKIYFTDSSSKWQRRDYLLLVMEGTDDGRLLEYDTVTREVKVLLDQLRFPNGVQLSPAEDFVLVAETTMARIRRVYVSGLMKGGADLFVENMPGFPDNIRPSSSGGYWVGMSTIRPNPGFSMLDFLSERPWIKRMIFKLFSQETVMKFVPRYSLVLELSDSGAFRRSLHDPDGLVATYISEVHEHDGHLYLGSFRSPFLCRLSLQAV

Compound: CC1Cc2ccccc2N1C(=O)C1CCCN(C1)C(=O)CCl (mixture of isomers) [TRIM25 ligand 11 (diastereomer mixture)]
Assay: probe-labelled cysteine peptide fold change vs DMSO (competition) (log2 fold change); higher = less target engagement (more negative = stronger competition)
Conditions: THP-1, incubation time: 4 h
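Further: competitive chemoproteomic profiling in live THP-1 cells with an iodoacetamide desthiobiotin (IA-DTB) probe, comparing probe-labelled peptide intensities in compound-treated cells against DMSO-treated controls.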

For “ANKRD11_Q6UB99_1712_EVLPASPRPDQSRPTGVPTPTSVLSCPSYEEVMHTPR (UniProt Q6UB99)”, the “probe-labelled cysteine peptide fold change” value (10 µM) was 0.0772 and the “probe-labelled cysteine peptide fold change” value (50 µM) was 0.125.

In the case of “ANXA4_P09525_315_KVLLVLCGGDD (UniProt P09525)”, the “probe-labelled cysteine peptide fold change” value (10 µM) is reported as -0.339 and the “probe-labelled cysteine peptide fold change” value (50 µM) is reported as -0.316.

“ANKLE2_Q86XL3_176_TCSVPPSDTDTYR (UniProt Q86XL3)” was tested, and the “probe-labelled cysteine peptide fold change” value (10 µM) was 0.0474 and the “probe-labelled cysteine peptide fold change” value (50 µM) was -0.286.

“ANKRD28_O15084_701_GAVTGHEECVDALLQHGAK (UniProt O15084)” was tested, and the “probe-labelled cysteine peptide fold change” value (10 µM) was -0.117 and the “probe-labelled cysteine peptide fold change” value (50 µM) was 0.0623.

For “ANKRD17_O75179_242_SLAEACSEGDVNAVR (UniProt O75179)”, the “probe-labelled cysteine peptide fold change” value (10 µM) was 0.102 and the “probe-labelled cysteine peptide fold change” value (50 µM) was 0.161.

“ANP32A_P39687_123_SLDLFNCEVTNLNDYRENVFK (UniProt P39687)” was tested, and the “probe-labelled cysteine peptide fold change” value (10 µM) was -0.235 and the “probe-labelled cysteine peptide fold change” value (50 µM) was -0.194.

For “ANKRD27_Q96NW4_112_EESFSILCIAHPLEK (UniProt Q96NW4)”, the “probe-labelled cysteine peptide fold change” value (10 µM) was 0.234 and the “probe-labelled cysteine peptide fold change” value (50 µM) was 0.136.

In the case of “APMAP_Q9HDC9_149_TRDDEPVCGRPLGIR (UniProt Q9HDC9)”, the “probe-labelled cysteine peptide fold change” value (10 µM) is reported as -0.051 and the “probe-labelled cysteine peptide fold change” value (50 µM) is reported as -0.0843.
